Values quoted from earlier work in paper PMC6639268 (Journal of Virology, 2019).

System: EBOV
Conditions: read-out: IC50, inhibition of EBOV; cited from earlier work

CN1[C@@H]2CC[C@H]1C[C@@H](OC(c1ccccc1)c1ccccc1)C2 [benztropine]
IC50: 3.7 µM
